Experimental data published in the supplement of paper PMC7666118.
This is one part of the list.

The chains behind the UniProt entries cited, without tags or fusion partners. Where a name states a change or a piece, a line headed by the entry shows the natural chain unless it says otherwise.
UniProt Q8N8Q8: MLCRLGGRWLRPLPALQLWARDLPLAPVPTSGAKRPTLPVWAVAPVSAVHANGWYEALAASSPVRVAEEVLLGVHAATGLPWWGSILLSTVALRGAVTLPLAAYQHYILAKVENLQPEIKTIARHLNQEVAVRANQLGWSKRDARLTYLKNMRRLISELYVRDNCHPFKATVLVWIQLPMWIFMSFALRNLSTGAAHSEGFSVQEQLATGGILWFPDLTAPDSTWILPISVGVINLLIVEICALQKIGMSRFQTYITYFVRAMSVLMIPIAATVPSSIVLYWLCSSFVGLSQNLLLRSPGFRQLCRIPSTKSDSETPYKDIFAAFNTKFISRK
UniProt P42773: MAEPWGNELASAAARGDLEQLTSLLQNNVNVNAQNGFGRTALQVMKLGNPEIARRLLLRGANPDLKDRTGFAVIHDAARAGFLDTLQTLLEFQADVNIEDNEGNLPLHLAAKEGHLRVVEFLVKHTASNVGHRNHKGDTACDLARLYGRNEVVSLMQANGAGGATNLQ
UniProt Q96SN8: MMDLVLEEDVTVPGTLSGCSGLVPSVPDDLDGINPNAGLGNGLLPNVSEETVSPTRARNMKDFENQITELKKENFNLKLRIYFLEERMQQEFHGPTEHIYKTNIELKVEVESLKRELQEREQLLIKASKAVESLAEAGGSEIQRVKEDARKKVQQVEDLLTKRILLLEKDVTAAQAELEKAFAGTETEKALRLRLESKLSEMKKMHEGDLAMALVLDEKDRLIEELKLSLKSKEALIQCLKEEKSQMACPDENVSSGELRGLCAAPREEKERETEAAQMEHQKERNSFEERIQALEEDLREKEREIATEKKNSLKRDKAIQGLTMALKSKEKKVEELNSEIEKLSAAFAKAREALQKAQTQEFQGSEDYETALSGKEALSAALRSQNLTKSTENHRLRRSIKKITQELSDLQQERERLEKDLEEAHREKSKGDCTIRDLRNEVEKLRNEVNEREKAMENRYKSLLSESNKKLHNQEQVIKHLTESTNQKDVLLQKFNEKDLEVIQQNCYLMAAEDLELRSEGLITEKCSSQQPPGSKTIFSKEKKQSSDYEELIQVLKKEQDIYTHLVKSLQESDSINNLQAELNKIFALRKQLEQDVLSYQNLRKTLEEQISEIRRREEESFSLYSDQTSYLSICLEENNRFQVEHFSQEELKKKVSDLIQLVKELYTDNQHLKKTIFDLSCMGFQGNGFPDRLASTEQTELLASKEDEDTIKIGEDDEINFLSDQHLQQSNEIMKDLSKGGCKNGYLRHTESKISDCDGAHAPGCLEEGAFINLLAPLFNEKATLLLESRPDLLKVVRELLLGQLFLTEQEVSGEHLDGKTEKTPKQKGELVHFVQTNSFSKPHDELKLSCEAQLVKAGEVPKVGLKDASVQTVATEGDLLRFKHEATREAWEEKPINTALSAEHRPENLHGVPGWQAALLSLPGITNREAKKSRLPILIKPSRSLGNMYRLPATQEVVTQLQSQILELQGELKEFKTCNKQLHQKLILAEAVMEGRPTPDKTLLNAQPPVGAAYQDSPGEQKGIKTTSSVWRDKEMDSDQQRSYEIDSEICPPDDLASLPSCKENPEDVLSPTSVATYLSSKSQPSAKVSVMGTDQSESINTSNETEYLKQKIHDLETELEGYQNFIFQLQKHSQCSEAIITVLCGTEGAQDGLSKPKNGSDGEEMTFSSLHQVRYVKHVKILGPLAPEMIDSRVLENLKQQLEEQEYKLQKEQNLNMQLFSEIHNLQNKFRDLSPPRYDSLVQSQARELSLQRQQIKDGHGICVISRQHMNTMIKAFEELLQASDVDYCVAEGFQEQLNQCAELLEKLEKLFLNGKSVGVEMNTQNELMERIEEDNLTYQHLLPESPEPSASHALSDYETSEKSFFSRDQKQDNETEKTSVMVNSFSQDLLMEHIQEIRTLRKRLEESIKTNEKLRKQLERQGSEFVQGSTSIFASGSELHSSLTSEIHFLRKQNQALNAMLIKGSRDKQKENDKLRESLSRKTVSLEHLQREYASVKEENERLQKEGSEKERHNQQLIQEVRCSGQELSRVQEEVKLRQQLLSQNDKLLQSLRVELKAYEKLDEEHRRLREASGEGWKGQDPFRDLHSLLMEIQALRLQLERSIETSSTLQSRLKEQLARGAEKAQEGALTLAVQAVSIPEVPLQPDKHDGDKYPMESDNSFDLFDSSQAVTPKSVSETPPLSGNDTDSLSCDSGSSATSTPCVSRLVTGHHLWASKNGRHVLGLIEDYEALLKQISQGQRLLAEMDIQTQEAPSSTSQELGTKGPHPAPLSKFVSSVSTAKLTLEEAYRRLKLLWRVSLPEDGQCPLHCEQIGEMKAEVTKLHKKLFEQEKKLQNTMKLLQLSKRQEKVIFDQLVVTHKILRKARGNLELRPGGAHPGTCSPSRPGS
UniProt O75208: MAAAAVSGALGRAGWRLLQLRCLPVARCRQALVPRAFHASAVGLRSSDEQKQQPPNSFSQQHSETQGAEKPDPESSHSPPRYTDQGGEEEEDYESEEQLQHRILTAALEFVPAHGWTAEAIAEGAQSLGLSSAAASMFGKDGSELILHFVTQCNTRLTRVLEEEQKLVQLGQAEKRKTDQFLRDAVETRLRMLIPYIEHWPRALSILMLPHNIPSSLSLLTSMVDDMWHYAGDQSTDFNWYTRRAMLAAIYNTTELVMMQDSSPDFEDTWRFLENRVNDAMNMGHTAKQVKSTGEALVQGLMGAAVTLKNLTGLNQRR
UniProt O95628: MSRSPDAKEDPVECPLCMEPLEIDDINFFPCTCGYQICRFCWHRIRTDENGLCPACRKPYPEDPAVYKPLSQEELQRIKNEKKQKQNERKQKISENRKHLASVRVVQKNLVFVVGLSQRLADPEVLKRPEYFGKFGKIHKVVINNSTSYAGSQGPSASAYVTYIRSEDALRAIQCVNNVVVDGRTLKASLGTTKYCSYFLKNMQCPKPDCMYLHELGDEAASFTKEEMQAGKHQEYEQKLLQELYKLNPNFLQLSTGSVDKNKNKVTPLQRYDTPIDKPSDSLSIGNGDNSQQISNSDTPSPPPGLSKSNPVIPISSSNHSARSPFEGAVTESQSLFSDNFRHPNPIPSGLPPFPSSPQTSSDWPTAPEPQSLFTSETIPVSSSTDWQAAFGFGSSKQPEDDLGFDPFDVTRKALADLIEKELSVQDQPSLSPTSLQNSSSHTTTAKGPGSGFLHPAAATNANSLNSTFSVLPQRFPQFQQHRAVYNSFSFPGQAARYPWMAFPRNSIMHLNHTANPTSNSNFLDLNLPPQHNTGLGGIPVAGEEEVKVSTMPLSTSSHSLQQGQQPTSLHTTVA
UniProt P11802: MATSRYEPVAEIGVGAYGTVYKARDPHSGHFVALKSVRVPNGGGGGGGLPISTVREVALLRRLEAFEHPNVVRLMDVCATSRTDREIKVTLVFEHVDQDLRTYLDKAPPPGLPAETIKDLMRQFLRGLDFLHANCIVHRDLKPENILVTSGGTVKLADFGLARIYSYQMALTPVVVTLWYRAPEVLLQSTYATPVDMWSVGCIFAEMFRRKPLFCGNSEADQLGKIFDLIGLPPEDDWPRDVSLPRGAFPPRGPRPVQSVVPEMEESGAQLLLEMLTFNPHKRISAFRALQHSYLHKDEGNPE
UniProt O75122: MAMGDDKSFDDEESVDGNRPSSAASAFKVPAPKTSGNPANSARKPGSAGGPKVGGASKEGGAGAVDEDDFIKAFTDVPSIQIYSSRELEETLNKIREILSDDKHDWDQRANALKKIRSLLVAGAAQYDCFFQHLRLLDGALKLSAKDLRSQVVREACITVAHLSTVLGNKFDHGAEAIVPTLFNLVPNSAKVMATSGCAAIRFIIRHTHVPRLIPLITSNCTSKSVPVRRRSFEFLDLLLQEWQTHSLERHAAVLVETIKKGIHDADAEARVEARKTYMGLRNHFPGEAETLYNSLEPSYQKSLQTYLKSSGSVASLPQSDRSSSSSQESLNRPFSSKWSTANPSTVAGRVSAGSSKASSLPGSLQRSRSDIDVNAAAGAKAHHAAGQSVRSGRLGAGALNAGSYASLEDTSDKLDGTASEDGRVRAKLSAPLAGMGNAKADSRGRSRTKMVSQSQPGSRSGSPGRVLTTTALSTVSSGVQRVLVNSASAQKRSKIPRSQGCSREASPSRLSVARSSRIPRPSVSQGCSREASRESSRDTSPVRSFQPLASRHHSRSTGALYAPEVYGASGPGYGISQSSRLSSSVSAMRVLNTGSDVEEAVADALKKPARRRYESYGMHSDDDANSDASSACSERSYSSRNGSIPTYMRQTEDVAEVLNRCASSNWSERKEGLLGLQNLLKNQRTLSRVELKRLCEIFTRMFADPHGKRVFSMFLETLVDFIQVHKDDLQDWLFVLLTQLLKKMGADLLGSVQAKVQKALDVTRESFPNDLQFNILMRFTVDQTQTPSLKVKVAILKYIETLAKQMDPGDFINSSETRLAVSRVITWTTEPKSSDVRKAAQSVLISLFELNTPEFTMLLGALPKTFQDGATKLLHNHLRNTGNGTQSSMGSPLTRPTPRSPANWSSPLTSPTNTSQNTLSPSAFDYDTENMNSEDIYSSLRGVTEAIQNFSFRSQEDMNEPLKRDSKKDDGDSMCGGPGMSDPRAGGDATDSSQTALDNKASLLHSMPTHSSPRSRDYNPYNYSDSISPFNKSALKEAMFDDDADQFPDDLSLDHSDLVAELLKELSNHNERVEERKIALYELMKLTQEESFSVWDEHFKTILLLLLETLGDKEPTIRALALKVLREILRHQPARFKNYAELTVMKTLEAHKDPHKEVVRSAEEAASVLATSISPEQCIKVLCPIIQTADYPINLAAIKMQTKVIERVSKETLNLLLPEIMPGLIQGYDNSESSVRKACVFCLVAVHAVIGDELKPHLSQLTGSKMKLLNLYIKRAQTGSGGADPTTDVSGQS
UniProt Q9NZN8, whole entry: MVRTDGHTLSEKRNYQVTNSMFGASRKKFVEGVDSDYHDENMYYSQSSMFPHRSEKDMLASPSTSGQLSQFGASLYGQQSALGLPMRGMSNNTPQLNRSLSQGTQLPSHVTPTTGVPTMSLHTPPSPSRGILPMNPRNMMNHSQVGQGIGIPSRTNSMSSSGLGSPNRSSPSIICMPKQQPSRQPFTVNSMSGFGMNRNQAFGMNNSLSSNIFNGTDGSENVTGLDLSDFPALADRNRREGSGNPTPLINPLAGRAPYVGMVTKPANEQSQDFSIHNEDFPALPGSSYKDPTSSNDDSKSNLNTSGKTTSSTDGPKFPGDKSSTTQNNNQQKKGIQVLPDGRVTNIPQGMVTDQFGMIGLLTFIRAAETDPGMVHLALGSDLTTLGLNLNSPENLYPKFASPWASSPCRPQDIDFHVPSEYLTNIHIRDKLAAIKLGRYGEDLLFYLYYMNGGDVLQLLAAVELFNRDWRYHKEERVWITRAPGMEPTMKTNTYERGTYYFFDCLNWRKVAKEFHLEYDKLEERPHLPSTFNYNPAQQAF
UniProt Q99439: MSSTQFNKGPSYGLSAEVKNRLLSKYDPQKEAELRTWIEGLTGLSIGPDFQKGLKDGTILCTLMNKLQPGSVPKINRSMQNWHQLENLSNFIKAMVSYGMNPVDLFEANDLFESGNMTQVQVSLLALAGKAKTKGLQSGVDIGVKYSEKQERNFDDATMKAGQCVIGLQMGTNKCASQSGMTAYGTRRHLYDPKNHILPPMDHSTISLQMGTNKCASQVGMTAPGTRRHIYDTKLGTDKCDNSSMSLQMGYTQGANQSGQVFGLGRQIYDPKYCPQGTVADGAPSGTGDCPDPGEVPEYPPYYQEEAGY
UniProt Q13112, whole entry, looked up: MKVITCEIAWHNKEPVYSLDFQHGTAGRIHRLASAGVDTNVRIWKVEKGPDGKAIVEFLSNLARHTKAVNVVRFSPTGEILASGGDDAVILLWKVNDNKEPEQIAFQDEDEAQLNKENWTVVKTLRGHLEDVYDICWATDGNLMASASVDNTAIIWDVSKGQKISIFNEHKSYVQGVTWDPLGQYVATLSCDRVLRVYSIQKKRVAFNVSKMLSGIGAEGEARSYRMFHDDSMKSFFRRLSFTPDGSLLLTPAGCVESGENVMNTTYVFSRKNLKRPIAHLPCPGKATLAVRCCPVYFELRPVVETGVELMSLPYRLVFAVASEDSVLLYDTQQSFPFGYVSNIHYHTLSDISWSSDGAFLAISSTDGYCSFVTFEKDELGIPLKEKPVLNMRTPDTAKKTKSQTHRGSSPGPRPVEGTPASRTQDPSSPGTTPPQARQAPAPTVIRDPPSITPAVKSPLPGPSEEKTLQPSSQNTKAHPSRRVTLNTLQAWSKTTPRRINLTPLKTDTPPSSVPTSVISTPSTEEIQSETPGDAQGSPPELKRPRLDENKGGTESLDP
UniProt Q9UKY7: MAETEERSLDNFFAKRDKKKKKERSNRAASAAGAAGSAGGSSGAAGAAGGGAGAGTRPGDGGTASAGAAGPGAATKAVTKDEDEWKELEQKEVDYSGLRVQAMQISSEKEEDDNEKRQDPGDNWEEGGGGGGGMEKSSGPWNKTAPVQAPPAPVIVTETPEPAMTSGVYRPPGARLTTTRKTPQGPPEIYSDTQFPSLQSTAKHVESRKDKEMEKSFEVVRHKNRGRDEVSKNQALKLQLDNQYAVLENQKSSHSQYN

compound: COc1ccc(Cn2ccc3cc(C)c(C(=O)NO)cc32)cc1; test: dose-dependent thermal stabilisation call (2D-TPP, DLPTP, 10% FDR) (binary (1 = stabilised)); higher = stabilised by the compound; conditions: system: HL-60 intact cells; concentration range 0.04-10 µM
Description: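 2D thermal proteome profiling in intact HL-60 cells treated with BRD-3811 (0, 0.04, 0.29, 2, 10 uM) for 90 min at 37 C, then heated 3 min at one of 12 temperatures (42-63.9 C). Soluble protein was quantified by TMT10 MS. The value is the DLPTP call of the paper: dose-dependent thermal stabilisation over all temperatures at 10% FDR (F-test of a dose-response against a flat model); one experiment, one call per tested protein.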

Target	dose-dependent thermal stabilisation call
CROP (UniProt O95232)	inactive: 0
CLTA (UniProt P09496)	inactive: 0
CISD1 (UniProt Q9NZ45)	inactive: 0
CHCHD1 (UniProt Q96BP2)	inactive: 0
CLPX (UniProt O76031)	inactive: 0
COX18 (UniProt Q8N8Q8)	inactive: 0
CDKN2C (UniProt P42773)	inactive: 0
CLASP1 (UniProt Q7Z460)	inactive: 0
CDK5RAP2 (UniProt Q96SN8)	inactive: 0
COQ9 (UniProt O75208)	inactive: 0
CDS2 (UniProt O95674)	inactive: 0
CFL1 (UniProt P23528)	inactive: 0
CNOT4 (UniProt O95628)	inactive: 0
CEP78 (UniProt Q5JTW2)	inactive: 0
CDK4 (UniProt P11802)	inactive: 0
CDC20 (UniProt Q12834)	inactive: 0
CMPK1 (UniProt P30085)	inactive: 0
CLIP2 (UniProt Q9UDT6)	inactive: 0

Target	dose-dependent thermal stabilisation call
CHST12 (UniProt Q9NRB3)	inactive: 0
CDKAL1 (UniProt Q5VV42)	inactive: 0
CLASP2 (UniProt O75122)	inactive: 0
COPE (UniProt O14579)	inactive: 0
CDC23 (UniProt Q9UJX2)	inactive: 0
CNNM4 (UniProt Q6P4Q7)	inactive: 0
CNOT2 (UniProt Q9NZN8)	inactive: 0
CNNM3 (UniProt Q8NE01)	inactive: 0
CNN2 (UniProt Q99439)	inactive: 0
CIRH1A (UniProt Q969X6)	inactive: 0
CRBN (UniProt Q96SW2)	inactive: 0
CLINT1 (UniProt Q14677)	inactive: 0
COG7 (UniProt P83436)	inactive: 0
CETN3 (UniProt O15182)	inactive: 0
CHAF1B (UniProt Q13112)	inactive: 0
CDV3 (UniProt Q9UKY7)	inactive: 0
CDT1 (UniProt Q9H211)	inactive: 0
CLIC4 (UniProt Q9Y696)	inactive: 0

A run of entries of the results above:
Target	dose-dependent thermal stabilisation call
CNN2 (UniProt Q99439)	inactive: 0
CIRH1A (UniProt Q969X6)	inactive: 0
CRBN (UniProt Q96SW2)	inactive: 0
CLINT1 (UniProt Q14677)	inactive: 0
COG7 (UniProt P83436)	inactive: 0
CETN3 (UniProt O15182)	inactive: 0
CHAF1B (UniProt Q13112)	inactive: 0
